The test system of this assay is Salmonella enterica serovar Typhimurium SL1344. Put plainly: bacterial growth OD600 after 18 h with compound and polymyxin B; higher = more bacterial growth (less inhibition). To be noted: 50 µM, Mueller-Hinton broth.

Structures are written as SMILES. The list shows a part of the results. Values are raw readings; no control value is given beside them.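 In the initial screen, polymyxin B was used at a concentration that permeabilizes Salmonella's outer membrane but not its inner membrane. Maximum growth was set by DMSO wells with or without polymyxin B. Since plates varied, data were ranked per plate, and compounds giving the lowest OD600 advanced as hits.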

Regarding `COc1cc(CN([C@H]2CCCCNC2=O)S(=O)(=O)c2cccc(Cl)c2)cc(OC)c1OCCc1ccsc1`, the “bacterial growth OD600” value (polymyxin B 0.75 µg/mL) worked out at 0.011.

In the case of `COc1cccc(OC)c1CN1CCCC(CO)(Cc2cccc(Cl)c2)C1` (stereo not given), the “bacterial growth OD600” value (polymyxin B 1 µg/mL) worked out at 0.871.

In the case of `CCn1ccnc1CN(C)Cc1cn(Cc2ccccc2)nc1-c1ccc2c(c1)OCO2`, the “bacterial growth OD600” value (polymyxin B 1 µg/mL) stood at 0.544. Regarding `O=C(NC1CCCC1)C1CCCN(C2CCN(c3nc4ccccc4o3)CC2)C1` (stereo not given), under “polymyxin B 0.75 µg/mL”, the “bacterial growth OD600” value was found to be 0.947. For `Cc1ccccc1C1(CC(=O)N2CCC(C(=O)N3CCCCC3)CC2)CC(=O)N(C2CCCC2)C1=O` (stereo not given), the “bacterial growth OD600” value (polymyxin B 0.75 µg/mL) amounted to 0.012.

Take `CN(Cc1ccccc1)Cc1cc(C(=O)NCc2n[nH]c3c2CCCCC3)no1`: the “bacterial growth OD600” value (polymyxin B 0.75 µg/mL) is 0.841.

Turning to `CC1(C)CC(NC2CCN(c3cccc(NC(=O)c4cccc(C(F)(F)F)c4)c3)CC2)CCO1` (stereo not given), the “bacterial growth OD600” value (polymyxin B 0.75 µg/mL) turned out to be 1.02.

Consider `CSCCC(=O)N1CCCC(C(=O)c2ccc(-c3ccccc3)cc2)C1` (stereo not given), for which the “bacterial growth OD600” value (polymyxin B 1 µg/mL) was 0.013. Turning to `Cc1ccccc1Oc1ncccc1CNC(=O)Cc1nonc1C`, where the note is “polymyxin B 1 µg/mL”, the “bacterial growth OD600” value stood at 0.844.

For the compound `CN(CCn1ccnc1)c1ccc(-c2nc(-c3ccccc3F)no2)cn1`, the “bacterial growth OD600” value (polymyxin B 1 µg/mL) came out at 0.846. Take `CCC(CC)N1CCCC(C(=O)Nc2ccccc2-c2ccc(OC)cc2)C1` (stereo not given): the “bacterial growth OD600” value (polymyxin B 1 µg/mL) was found to be 1.09. As for `CN1CCN(C(=O)CCC2CCCN(C(=O)CCCCc3ccccc3)C2)CC1` (stereo not given), for the setting “polymyxin B 1 µg/mL”, the “bacterial growth OD600” value amounted to 0.957. With `O=C(CCC1(Cc2ccc3ccccc3c2)CCC(=O)N1)NC(c1ccccn1)C(F)(F)F` (stereo not given), for the setting “polymyxin B 0.75 µg/mL”, the “bacterial growth OD600” value came to 0.781. For the compound `O=C(NCCC1=CCCCC1)C1CCC(=O)N(CCCN2CCOCC2)C1` (stereo not given), where the note is “polymyxin B 1 µg/mL”, the “bacterial growth OD600” value was 0.847. For `CN1CCN([C@@H]2CCN(Cc3cccc4c3oc3ccccc34)C[C@H]2O)CC1`, the “bacterial growth OD600” value (polymyxin B 0.75 µg/mL) stood at 0.736. As to `O=C(c1coc(COc2ccc(F)cc2Cl)n1)N1CCC[C@H]1CO`, the “bacterial growth OD600” value (polymyxin B 1 µg/mL) turned out to be 1. On to `Cc1cccc(CNC(=O)C2CCCN(C3CCN(C(=O)C4CC4)CC3)C2)c1` (stereo not given), for which the “bacterial growth OD600” value (polymyxin B 0.75 µg/mL) came to 0.822.

As to `COc1cc(NC(=O)CCC2CCCN(CCCSC)C2)cc(OC)c1` (stereo not given), the “bacterial growth OD600” value (polymyxin B 1 µg/mL) worked out at 0.956.

As to `COc1ccc(-c2nn(-c3ccccc3)cc2CN(C)Cc2nccs2)c(F)c1`, the “bacterial growth OD600” value (polymyxin B 0.75 µg/mL) stood at 0.012. Regarding `CN(Cc1ccccc1)C(=O)c1nc2ccccn2c1CNCCN1CCCCC1`, the “bacterial growth OD600” value (polymyxin B 1 µg/mL) worked out at 0.814. `CCOC(=O)CN(C)C(=O)CCC1(Cc2ccc3ccccc3c2)CCC(=O)N1` (stereo not given): the “bacterial growth OD600” value (polymyxin B 0.75 µg/mL) came to 0.781. Consider `COCCN1C(=O)NC(Cc2ccc(F)cc2)(C2CCN(C(=O)Cc3cccc(F)c3)CC2)C1=O` (stereo not given), for which the “bacterial growth OD600” value (polymyxin B 0.75 µg/mL) came out at 0.863.

As for `CCC(=O)N[C@@H]1c2ccccc2C2(CCN(C(=O)Cn3ccc(C)n3)CC2)[C@H]1OCc1cccnc1`, the “bacterial growth OD600” value (polymyxin B 0.75 µg/mL) was 0.783. Consider `Cc1c(C(C)NCc2cc(F)cc(F)c2)cnn1-c1cccc(F)c1` (stereo not given), for which, where the note is “polymyxin B 0.75 µg/mL”, the “bacterial growth OD600” value came out at 0.762. For `O=C(CCc1nc(-c2ccccc2)no1)NC1CCCN(Cc2ccccc2F)C1` (stereo not given), the “bacterial growth OD600” value (polymyxin B 1 µg/mL) amounted to 0.925. Regarding `C=CCCC(=O)NC1CC(=O)N(Cc2ccc(F)cc2)C1` (stereo not given), where the note is “polymyxin B 1 µg/mL”, the “bacterial growth OD600” value was 0.887. `OC(Cc1ccccc1)c1ccc2c(c1)CN(Cc1ccccc1OC(F)F)CCO2` (stereo not given): the “bacterial growth OD600” value (polymyxin B 0.75 µg/mL) came out at 0.035.

For `Cc1ccc(C)c(OCc2cc(C(=O)N(C)Cc3n[nH]c4c3CCCC4)no2)c1`, the “bacterial growth OD600” value (polymyxin B 0.75 µg/mL) came out at 0.502. Regarding `CN(Cc1ccccc1)c1ncc2c(n1)CC(C)(C)CC2NS(C)(=O)=O` (stereo not given), the “bacterial growth OD600” value (polymyxin B 0.75 µg/mL) was 0.472. On to `Cc1nc(N2CCCCCCC2)ncc1C(C)NC(=O)C1(C(N)=O)CC1` (stereo not given), for which the “bacterial growth OD600” value (polymyxin B 1 µg/mL) came out at 1.02.

The record behind these values is the supplement of paper PMC12889115.
